Assay results reported in patent publication US20120214862A1, “MODULATION OF FACTOR 7 EXPRESSION” (ISIS Pharmaceuticals, Inc., priority 2009, published 2012).
Some entries share one result that the patent states for a list of compounds. In the oligonucleotide strings, read from the 5' end, every base follows the letter of its sugar. An asterisk marks phosphorothioate; unmarked linkages are phosphodiester. Other units and linkages are bracketed, terminal groups are in braces. A string of capitals states the bases alone. e = 2'-O-(2-methoxyethyl) (MOE); [5mC] = 5-methylcytosine; d = 2'-deoxy (DNA)

Test system: human Factor 7 mRNA
Assay: Antisense inhibition of human Factor 7 mRNA in HepB3 cells, lipofectin, 50 nM, real-time RT-PCR
Assay type: cell-based
Conditions: Example 6 microwalk, text summaries of Tables 8-13, ~24 h
Description: Antisense oligonucleotides targeted to a Factor 7 nucleic acid were tested for their effects on Factor 7 mRNA in vitro. Cultured HepB3 cells at a density of 4,000 cells per well were transfected using lipofectin reagent with 50 nM antisense oligonucleotide. After a treatment period of approximately 24 hours, RNA was isolated from the cells and Factor 7 mRNA levels were measured by real-time RT-PCR, as described herein. Factor 7 mRNA levels were adjusted according to total RNA content as measured by RIBOGREEN®. Results are presented as percent inhibition of Factor 7, relative to untreated control cells.
(§1) Antisense oligonucleotides targeted to a Factor 7 nucleic acid were designed and tested for their effects on Factor 7 mRNA in vitro. Certain antisense oligonucleotides from Table 3 were also retested for their effects on Factor 7 mRNA in vitro. Cultured HepB3 cells at a density of 4,000 cells per well were transfected using lipofectin reagent with 50 nM antisense oligonucleotide. After a treatment period of approximately 24 hours, RNA was isolated from the cells and Factor 7 mRNA levels were measured by real-time RT-PCR, as described herein. Human Factor 7 primer probe set RTS 2927 was used to measure mRNA levels. Factor 7 mRNA levels were adjusted according to total RNA content as measured by RIBOGREEN®. Results are presented as percent inhibition of Factor 7, relative to untreated control.
as §1, with “tested” for “tested for their effects on Factor 7 mRNA in vitro. Certain antisense oligonucleotides from Table 3 were also retested”
These gapmers were designed by creating gapmers shifted slightly upstream and downstream (i.e. “microwalk”) of the original gapmers from Table 7. Gapmers were also created with various motifs, e.g. 5-10-5 MOE, 3-14-3 MOE, and 2-13-5 MOE. These gapmers were tested in vitro. Cultured HepB3 cells at a density of 4,000 cells per well were transfected using lipofectin reagent with 50 nM antisense oligonucleotide. After a treatment period of approximately 24 hours, RNA was isolated from the cells and Factor 7 mRNA levels were measured by real-time RT-PCR. Factor 7 mRNA levels were adjusted according to total RNA content, as measured by RIBOGREEN®. Results are presented as percent inhibition of Factor 7, relative to untreated control cells.

| Substance | inhibited Factor 7 mRNA expression by at least |
| --- | --- |
| 422089 (antisense eG*eT*e[5mC]*eA*eG*dG*dG*d[5mC]*dT*dG*dG*dT*dT*dT*dT*eG*eG*eA*eG*eG) [compound 422089] | at least 20% |
| 422170 (antisense eG*e[5mC]*eT*dG*dA*dG*dG*dA*dG*dA*d[5mC]*dA*dA*dT*dG*dG*dT*e[5mC]*eA*eG) [compound 422170] | at least 20% |
| 422202 (antisense eA*eG*e[5mC]*d[5mC]*dT*dG*dA*dG*dG*d[5mC]*d[5mC]*dA*dG*d[5mC]*dA*dG*dA*eT*e[5mC]*eA) [compound 422202] | at least 40% |
| 422210 (antisense e[5mC]*eA*eG*d[5mC]*dA*d[5mC]*dA*d[5mC]*dA*dT*dG*dG*dA*dG*dT*d[5mC]*dA*eG*e[5mC]*eA) [compound 422210] | at least 20% |
| 422223 (antisense eG*eA*eG*d[5mC]*d[5mC]*d[5mC]*dG*dA*dG*dT*dT*d[5mC]*dT*dG*d[5mC]*dA*dG*eG*eA*eG) [compound 422223] | at least 40% |
| 422226 (antisense e[5mC]*eA*dT*dG*dG*dT*dG*dA*dT*dG*d[5mC]*dT*dT*d[5mC]*dT*eG*eA*eA*eT*eT) [compound 422226] | at least 40% |
| 422231 (antisense eT*e[5mC]*dA*dG*dG*dG*d[5mC]*dT*dG*dG*dT*dT*dT*dT*dG*eG*eA*eG*eG*eA) [compound 422231] | at least 20% |
| 422245 (antisense eT*eG*dA*dG*dG*dA*dG*dA*d[5mC]*dA*dA*dT*dG*dG*dT*e[5mC]*eA*eG*eG*eG) [compound 422245] | at least 20% |
| 422256 (antisense e[5mC]*eA*d[5mC]*d[5mC]*d[5mC]*dG*d[5mC]*d[5mC]*dG*dG*d[5mC]*dT*d[5mC]*dT*dG*e[5mC]*eT*e[5mC]*eA*eT) [compound 422256] | at least 20% |
| 422282 (antisense eA*eG*d[5mC]*dA*dG*d[5mC]*d[5mC]*dT*dG*dA*dG*dG*d[5mC]*d[5mC]*dA*eG*e[5mC]*eA*eG*eA) [compound 422282] | at least 40% |
